From KR20240007815A come the findings set out here.

The assay deals with 원숭이(Cynomolgus monkey) BDCA-2 (CLEC4C) (Cynomolgus monkey). Kind of assay: flow cytometry on 293 cells expressing cyno BDCA-2, anti-human IgG-APC secondary. (A flow cytometer gives signals particle by particle.)

These are yes or no findings as the source states them, for the method shown. Some binding calls cover weakened binding; strength is not graded here.

B1: 201A 인간화 항체 201H (antibody, human IgG1, kappa, V domains shown)
VH: EVQLVESGGGLVKPGGSLRLSCAASGFTFSSYTMSWVRQAPGKGLEWVATISSGGSYTYYPDSVKGRFTISRDNAKNSLYLQMNSLRAEDTAVYYCTRDRGDYDYDEGYYFDYWGQGTLVTVSS
VL: DIVLTQSPASLAVSPGQRATITCRASASVDSYGNSFMHWYQQKPGQPPKLLIYLASNLESGVPARFSGSGSRTDFTLTINPVEANDTANYYCQQNNEDPRTFGGGTKVEIKR
Take B1: the binding result was “binds”.

B2: 201A 키메라 항체 201C (antibody, human IgG1, kappa, V domains shown)
VH: DVKLVESGGGLVKPGGSLNLSCAASGFTFSSYTMSWVRQNPEKRLEWVATISSGGSYTYYPDSVKGRFTISRDNAKNTLYLQMSSLKSEDTAMYYCTRDRGDYDYDEGYYFDYWGQGTTLTVSS
VL: NIVLTQSPASLAVSLGQRATISCRASASVDSYGNSFMHWYQQKPGQPPKLLIYLASNLESGVPARFSGSGSRTDFTLTIDPVEADDAATYYCQQNNEDPRTFGGGTKLEIKR
As to B2, the binding entry is “binds”.
